Results are given in words; binding and its absence hold for the method and conditions named. In cells and extracts the contact can be indirect. For some assays here: Binding calls can cover weak binding; strength is not graded here. Where a sequence is shown, tags or fusion partners need not be part of it.
What was measured:
[1] = target: Tay.FL-Flag (full-length Tay bridge, C-terminal 3XFlag) (Drosophila melanogaster) (UniProt Q9VXM5); experiment: co-IP; protein extracts of Drosophila embryos (da-Gal4 driven co-expression), 2 mg total protein, IP buffer with 200 mM NaCl, 1% NP-40, 0.1% SDS, 0.5% DOC; anti-FlagM2 agarose, 4°C for 12-16 h; blots with anti-Myc or anti-HA
[2] = target: Tay.2-Flag (1030 amino acid C-terminal fragment of Tay, C-terminal 3XFlag) (Drosophila melanogaster); experiment: as above

B1: Mkp3-Myc (enzyme, UniProt Q9VVW5 1-411)
chain: MPETEHETCSKEWLQSQLRSLDSKDLILLDCRGSHEYSESHIRGAVNLCIPSIVLRRLAVGKIDLASTIKSPELKQRIQSGYKLCWFILYNGEGVPGQNQEIAGAGSLAVAMDSIISILHRRLKQDGCRVVALQDGFNNFRQAFPEWCEDDNQTHSKEIESSRNVQTDQLMGLRSLRISTTQSDSACSSSAESSDCESSSHHHHHHSHHNYNEAPVEIIPGLLFLGNATHSCDSEALKKYNIKYVLNVTPDLPNKFKESGDIKYLQIPITDHYSQDLAIHFPDAIQFIEEARSASSVVLVHCLAGVSRSVTVTLAYLMHTRGLSLNDAFAMVRDRKPDVSPNFHFMQQLLSFESQLRLRPGSRFSCSCIAPDCNCMQTTGFMATHLANATGVSPDSGIEFDRWTPSDTGLK
- binding [1]: binds
- binding [2]: no binding
